Test results as given in patent US20230331827A1, “POTASSIUM CHANNEL INHIBITORS” (priority 2017, published 2023).

B1: KB_A07: EETI-II knottin fused into VL CDR2, D1A12 VH; parental KnotBody, isotype control (antibody, V domains shown)
VH: EVQLVESGGGLVRPGGSLRLSCAASGFTFSSYAMSWVRQAPGKGLEWVSAISGSGGSTYYADSVKGRFTISRDNTKNSLYLQMTSLRADDTAFYYCVKDFGPGYGTGWFDYWGPGTLVTVSS
VL: DIQMTQSPSSLSASVGDRVTITCRASQSISSYLNWYQQKPGKAPKLLIYAAGVCPRILMRCKQDSDCLAGCVCGPNGFCGSRSGVPSRFSGSGSGTDFTLTISSLQPEDFATYYCQQGASPPYTFGQGTKVEIKRT
B2: KB_A12: EETI-II knottin fused into VL CDR2, D1A12 VH; parental KnotBody, isotype control (antibody, V domains shown)
VH: EVQLVESGGGLVRPGGSLRLSCAASGFTFSSYAMSWVRQAPGKGLEWVSAISGSGGSTYYADSVKGRFTISRDNTKNSLYLQMTSLRADDTAFYYCVKDFGPGYGTGWFDYWGPGTLVTVSS
VL: QSVLTQPPSVSEAPRQRVTITCSGSSSNIGNNAVNWYQQLPGKAPKLLIYAAGRCPRILMRCKQDSDCLAGCVCGPNGFCGANSGVSDRFSAAKSGTSASLAINGLRSEDEADYYCAAWDDSLNGYVFGTGTKLTVLGQP

Test system: trypsin
Assay: Flow cytometry of KnotBody scFv-Fc displayed on HEK293 cells (anti-Fc and trypsin staining)
Format: cell-based
Conditions: HEK293, 15 dpt, after 13 days of blasticidin selection

Molecule	cells dual stained for Fc and trypsin
B1	34%
B2	11%
